Measurements published in the supplement of paper PMC9446081.
The hits were mostly taken out for another list; the other results follow.

system: Escherichia coli K-12 BW25113; assay: relative growth (OD600 normalised to plate interquartile mean) (fraction); higher = less growth inhibition, active = 0.2 or less; conditions: 50 µM; LB; incubation time: overnight (16-24 h)
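Further: Wild-type cells incubated without shaking, value is the mean of two biological replicates.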

Row | SMILES | relative growth
1 | CCC(C)C(C(=O)OCC[N+](C)(CC)CC)c1ccccc1.[Br-] (stereo not given) | inactive: 0.857
2 | CN1CCN(CCCN2c3ccccc3Sc3ccc(Cl)cc32)CC1.O=S(=O)(O)CCS(=O)(=O)O | inactive: 0.844
3 | CCOc1cc(NC(C)=O)ccc1C(=O)OC | inactive: 1.14
4 | Br.CN1C2CCC1CC(OC(=O)C(O)c1ccccc1)C2 (stereo not given) | inactive: 1.11
5 | C[C@@H]1C[C@H](N)C[C@H](c2ccncc2NC(=O)c2ccc(F)c(-c3c(F)cccc3F)n2)C1 | inactive: 0.974
